Drawing on PMC5282477, this text covers binding for one substance.

Amino acid sequences for entries named in this document (tags omitted).
UniProt P04150: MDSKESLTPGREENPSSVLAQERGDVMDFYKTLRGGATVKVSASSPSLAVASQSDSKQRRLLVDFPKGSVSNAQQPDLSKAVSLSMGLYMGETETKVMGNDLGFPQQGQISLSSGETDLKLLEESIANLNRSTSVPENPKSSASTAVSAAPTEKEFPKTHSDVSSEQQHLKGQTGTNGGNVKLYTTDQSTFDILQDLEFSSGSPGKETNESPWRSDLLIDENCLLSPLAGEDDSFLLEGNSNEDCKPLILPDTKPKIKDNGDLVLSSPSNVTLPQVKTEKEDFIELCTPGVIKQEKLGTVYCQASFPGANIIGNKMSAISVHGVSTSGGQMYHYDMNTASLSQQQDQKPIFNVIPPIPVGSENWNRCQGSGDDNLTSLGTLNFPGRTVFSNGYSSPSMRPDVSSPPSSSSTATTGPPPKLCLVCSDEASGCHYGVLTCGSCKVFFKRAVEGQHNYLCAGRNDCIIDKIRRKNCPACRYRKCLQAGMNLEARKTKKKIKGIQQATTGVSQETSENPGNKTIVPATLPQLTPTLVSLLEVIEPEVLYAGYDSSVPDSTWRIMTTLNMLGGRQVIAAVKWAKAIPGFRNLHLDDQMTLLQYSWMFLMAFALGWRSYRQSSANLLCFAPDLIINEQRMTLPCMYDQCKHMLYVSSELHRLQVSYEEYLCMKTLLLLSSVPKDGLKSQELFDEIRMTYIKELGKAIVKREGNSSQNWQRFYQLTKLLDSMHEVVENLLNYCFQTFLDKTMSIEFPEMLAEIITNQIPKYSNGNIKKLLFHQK
UniProt Q96H86: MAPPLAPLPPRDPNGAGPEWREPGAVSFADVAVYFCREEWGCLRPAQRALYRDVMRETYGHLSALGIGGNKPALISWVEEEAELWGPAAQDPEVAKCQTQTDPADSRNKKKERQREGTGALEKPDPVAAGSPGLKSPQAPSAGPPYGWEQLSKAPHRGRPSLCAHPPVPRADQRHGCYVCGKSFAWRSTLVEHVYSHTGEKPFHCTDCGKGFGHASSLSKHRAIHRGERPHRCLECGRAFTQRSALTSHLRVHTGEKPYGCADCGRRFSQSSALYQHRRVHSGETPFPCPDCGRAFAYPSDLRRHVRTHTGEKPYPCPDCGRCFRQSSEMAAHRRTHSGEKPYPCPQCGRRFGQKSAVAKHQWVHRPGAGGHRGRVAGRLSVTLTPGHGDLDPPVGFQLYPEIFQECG

In the assay the target is glucocorticoid receptor (GR), endogenous in HeLa cells (human (endogenous in HeLa)) (UniProt P04150). The assay can be described thus: co-IP; HeLa cells treated with 10^-6 M dexamethasone or vehicle for 3 hours; immunoprecipitation with anti-GR antibody or control IgG, Western blot for ZNF764; both proteins endogenous.

No constants are given. Whether binding was seen depends on the method and setting. Binding seen in cells or lysates may run through a third protein. Some results given as binding are weak or reduced against the parent protein; the word gives no strength.

For the substance “zinc finger protein ZNF764, endogenous in HeLa cells (from UniProt Q96H86 1-408)”, the binding entry is “binds”.
